# Test results: the supplement of paper PMC8256030
# Where “and” joins values, the source holds several entries; their conditions need not be identical. Equal values may be shown once. Where a name gives a salt, the structure may show the parent alone. The list shows a part of the results. This data set is noisy: repeats of one test often differ as much as different tests do.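 HEK293T cells were given each compound shortly before transfection with a reporter in which red mCherry is followed by the SARS-CoV-2 frameshift element and then GFP in the −1 frame, so GFP appears only after frameshifting.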
# Test system: SARS-CoV-2 -1 PRF reporter mCherry-FSE-GFP(-1)
# Assay: mCherry (red) intensity as percent of control; higher = higher upstream reporter expression
# Settings: 10 µM; 24 h; HEK293T
row,Structure (SMILES),mCherry
1,CCn1cc(C(=O)O)c(=O)c2ccc(C)nc21 [nalidixic acid],115%
2,C/C=C/C(=O)N(CCC)C(CC)C(=O)N(C)C (stereo not given) [cropropamide],67.3%
3,CCCCS(=O)(=O)N[C@@H](Cc1ccc(OCCCCC2CCNCC2)cc1)C(=O)O [tirofiban],145%
4,CSC[C@H](NC(=O)[C@H](Cc1ccccc1)NC(=O)N1CCOCC1)C(=O)N[C@@H](CC1CCCCC1)[C@@H](O)C(=O)OC(C)C [terlakiren],63.6%
5,CCC(=O)NC[C@@H]1C[C@H]1c1cccc2c1CCO2 [Tasimelteon],91.9%
6,N=C(N)NS(=O)(=O)c1ccc(N)cc1 [sulfaguanidine],70.3%
7,OCc1ccccc1O[C@@H]1O[C@H](CO)[C@@H](O)[C@H](O)[C@H]1O,91.1%
8,O=C1C(=O)c2ccccc2C(O)=C1C1CCC(c2ccc(Cl)cc2)CC1 (stereo not given),96.4%
9,Oc1ccc(Cl)c2cccnc12 [cloxiquine],112%
10,C=CCc1ccccc1OCC(O)CNC(C)C (stereo not given) [Alprenolol·HCl],94.3%
11,O=c1n(CCCN2CCN(c3cccc(Cl)c3)CC2)nc2ccccn12 [trazodone],129%
12,O=C1c2ccccc2CN2C(=O)c3ccccc3CN12 [diftalone],100%
13,O=C(O)Cc1nn(Cc2ccc(Br)cc2F)c(=O)c2ccccc12 [ponalrestat],95.9%
14,Oc1ncnc2[nH]ncc12 [allopurinol],93.4%
15,O=C(O)CCC/C=C\C[C@@H]1[C@@H](/C=C/[C@@H](O)COc2cccc(C(F)(F)F)c2)[C@H](O)C[C@@H]1O (racemic) [fluprostenol],91.4%
16,CC(C)[C@H]1CC[C@H](C(=O)N[C@H](Cc2ccccc2)C(=O)O)CC1 [nateglinide],99.1%
17,CO[C@H]1C[C@@H]2CC[C@@H](C)[C@@](O)(O2)C(=O)C(=O)N2CCCC[C@H]2C(=O)O[C@H]([C@H](C)C[C@@H]2CC[C@@H](OC(=O)C(C)(CO)CO)[C@H](OC)C2)CC(=O)[C@H](C)/C=C(\C)[C@@H](O)[C@@H](OC)C(=O)[C@H](C)C[C@H](C)/C=C/C=C/C=C/1C [Torisel],96.1%
18,C=CC[C@@H]1/C=C(\C)C[C@H](C)C[C@H](OC)[C@H]2O[C@@](O)(C(=O)C(=O)N3CCCC[C@H]3C(=O)O[C@H](/C(C)=C/[C@@H]3CC[C@@H](O)[C@H](OC)C3)[C@H](C)[C@@H](O)CC1=O)[C@H](C)C[C@@H]2OC [Tacrolimus],90%
19,C=C1CC[C@H](O)C/C1=C/C=C1\CCC[C@]2(C)[C@@H]([C@H](C)/C=C/[C@H](C)C(C)C)CC[C@@H]12 [ergocalciferol],108%
20,NC(=O)c1csc([C@@H]2O[C@H](CO)[C@@H](O)[C@H]2O)n1 [tiazofurine],83.6%

# Reprinted at random: 2 entries already listed, in no set order.
row,Structure (SMILES),mCherry
12,O=C1c2ccccc2CN2C(=O)c3ccccc3CN12 [diftalone],100%
6,N=C(N)NS(=O)(=O)c1ccc(N)cc1 [sulfaguanidine],70.3%

# The list goes on:

row,Structure (SMILES),mCherry
1,CN(C)[C@@H]1C(=O)C(C(N)=O)=C(O)[C@@]2(O)C(=O)C3=C(O)c4c(O)ccc(Cl)c4[C@@H](O)[C@H]3C[C@@H]12 [Demeclocycline],82.9%
2,CN(C)CC(c1ccc(O)cc1)C1(O)CCCCC1 (stereo not given) [desvenlafaxine],62.1%
3,C#Cc1cccc(Nc2ncnc3cc(OCCOC)c(OCCOC)cc23)c1 [Erlotinib],54.9%
4,Cc1cnc(C(=O)NCCc2ccc(S(=O)(=O)NC(=O)NC3CCCCC3)cc2)cn1 [glipizide],79.5% and 91.2%
5,CC(C)C(=O)OCC(=O)[C@@]12O[C@H](C3CCCCC3)O[C@@H]1C[C@H]1[C@@H]3CCC4=CC(=O)C=C[C@]4(C)[C@H]3[C@@H](O)C[C@@]12C [Ciclesonide],90.8%
6,CCC(c1ccc(O)cc1)C(CC)C(C)c1ccc(O)cc1 (stereo not given) [benzestrol],83.4%
7,CCC1=C(C)CN(C(=O)NCCc2ccc(S(=O)(=O)NC(=O)N[C@H]3CC[C@H](C)CC3)cc2)C1=O,83.3%
8,O=C1CCc2cc(OCCCCc3nnnn3C3CCCCC3)ccc2N1 [cilostazol],109%
9,O=C(O)Cc1csc(-c2ccc(Cl)cc2)n1 [fenclozic acid],106%
10,C[N+](C)(CCOc1ccccc1)Cc1ccccc1.O=C([O-])c1cc2ccccc2cc1O [bephenium hydroxynaphthoate],116%
11,C=C1[C@H](CO)[C@@H](O)C[C@@H]1n1cnc2c(=O)[nH]c(N)nc21 [Baraclude],101%
12,Cc1cn([C@H]2O[C@@H](CO)[C@H](O)[C@H]2F)c(=O)[nH]c1=O [clevudine],73.5%
13,CC[N+]([O-])(CC)CCOc1ccc(/C(=C(/Cl)c2ccccc2)c2ccccc2)cc1 [clomifenoxide],104%
14,CC(C(=O)O)c1ccc2oc(-c3ccc(Cl)cc3)nc2c1 (stereo not given) [benoxaprofen],61.6%
15,CN1c2cc(O)c(N=NC(N)=O)cc2CC1S(=O)(=O)O (stereo not given) [carbazochrome sodium sulfonate],88.8%
16,Nc1ncnc(Nc2ccccc2)n1 [amanozine],109%
17,CC(C(=O)O)c1ccc(N2CC=CC2)c(Cl)c1 (stereo not given) [pirprofen],94.9%
18,CN(C)c1cc(NC(=O)CNC(C)(C)C)c(O)c2c1C[C@H]1C[C@H]3[C@H](N(C)C)C(=O)C(C(N)=O)=C(O)[C@@]3(O)C(=O)C1=C2O,102%
19,CCC1(c2c[nH]cn2)Cc2ccccc2C1 [atipamezole],69.3%
20,C#CC1(O)CC[C@H]2[C@@H]3CCC4=CC(=O)CC[C@@H]4[C@H]3CC[C@@]21CC (stereo not given in full) [norgestrel],113%
